# Measured values as given in paper PMC12518634, “The noncanonical function of liver-type phosphofructokinase potentiates the efficacy of HDAC inhibitors in cancer” (Signal Transduction and Targeted Therapy, 2025).
# Experiments:
# [1] = tested on: 1405R3; test: High-throughput drug screen, CellTiter-Glo viability, 72 h; assay type: cell-based, human; set-up: AUC: scale not given here; details: 1405R3 DSRT analysis
# Procedure: (§1) The cells were seeded and incubated with a gradient of concentrations of drugs for 72 h, after which the cell viability was assessed (Supplementary Fig. 1a). The drug library primarily comprises epigenetic drugs, including HDAC inhibitors, DNA methyltransferase inhibitors, and histone demethylase inhibitors, as well as conventional chemotherapies and kinase inhibitors (Supplementary Fig. 1b and Supplementary Table 1). […] To identify novel therapeutics against CCA, we conducted a high-throughput screen employing PerkinElmer’s integrated robotic Explorer G3 workstations. […] Following dilution to five specified concentrations, drugs were dispensed into 96-well plates in the sequence detailed in Supplementary Fig. 1a. The CCA cell lines were subsequently plated in 384-well plates at a density of 3000 cells per well in a 20 μL total volume. After a 24-h incubation, the compounds were added to the wells and incubated for 72 h. We then quantified cell viability via the CellTiter-Glo luminescent assay according to the manufacturer’s protocol. Signal detection was carried out on a Synergy2 plate reader operated by Gen5 software (BioTek). For data processing, the raw luminescence data were processed through the Breeze pipeline for curve fitting, yielding quality control metrics (e.g., Z-factors) and drug response parameters (AUC and DSS), as adapted from previous work.[54] Drug responses were evaluated on the basis of the drug sensitivity score (DSS), and a cutoff of ≥10 was used to define efficacy. The complete drug library and screening dataset are available in Supplementary Tables 1-3.
# (§2) Supplementary Fig. 1. A high-throughput drug screen to identify drugs targeting CCA. a Schematic representation of the drug screening protocol. […] Each drug was tested at five different concentrations (10, 1, 0.1, 0.01, and 0.001 μM), and each treatment was replicated twice. b Classification of drugs used for screening.
# [2] = tested on: 783C-6; test: as above; assay type: cell-based, human; set-up: AUC: scale not given here; details: 783C-6 cells
# Procedure: as §1, §2
# [3] = area under the dose-response curve
# [4] = slope of fitted dose-response curve
compound,measurement,setting,value
Cc1ccc(C(=O)NCCCCCC(=O)Nc2ccccc2N)cc1 [RG2833],AUC,[1]; [3],8.2
same,DSS,[1]; drug sensitivity score,0.4
same,MIN,[1]; lower asymptote of fitted dose-response curve,78.3
same,SLOPE,[1]; [4],-2.5
same,DSS,[2]; DSS of DSRT analysis,0.7
same,AUC,[2]; [3],13.8
same,MIN,[2]; minimum of dose-response curve,84.8
same,SLOPE,[2]; [4],-2.5
